# Measurements published in patent US20190351006A1, “METHODS OF ADMINISTRATION OF NMDA RECEPTOR AGONISTS” (Naurex Inc., priority 2017, published 2019).
# “Also recorded” adds a separate entry of the source. At least one structure is not confirmed: it was looked up by name or label, or the drawing left a doubt.
# Key:
# scPCP-treated mice [1] = experiment: Novel object recognition (NOR) in subchronic PCP (scPCP) mice; format: in vivo, Male C57BL/6J mice; details: rapamycin 0.2 nM ICV 24 h prior to rapastinel 1 mg/kg subcu
# Method: (§1) Animals: Male C57BL/6J mice 22-25 g (21/2 to 3 month old) were used is these studies. Drugs: Rapastinel was obtained from SAI Life Sciences (India). Rapastinel, PCP, and ketamine were dissolved in 0.9% sterile saline (Sal). PCP and ketamine were administered intraperitoneally (ip), at a volume of 10 mL/kg body weight. Rapastinel was given subcutaneously (subcu), and rapamycin was given intracerebroventricularly (icy). Drug Treatments: Male C57BL/6J mice were randomly assigned to treatment groups of 10 per group. To develop the cognitive deficit, groups of 10 mice were treated with PCP (10 mg/kg i.p., twice a day for 7 days) followed by a 7-day washout period. Following the washout period, the subchronic PCP mice were tested to determine that an NOR deficit had been established. See Rajagopal et al 3,4. See FIG. 7, for treatment schedules. Behavior, in vivo Microdialysis (MD) and ICV Procedures—The procedures have been described in detail in References 3,10,11,12,13. See FIG. 7. for pictorial representations of drug treatment protocols. Rapastinel's ability to restore episodic memory (NOR) and cognitive flexibility (RL), like its antidepressant action in rodents, is mTOR dependent as indicated by blockade by ICV rapamycin. […]
# scPCP-treated mice [2] = experiment: Reversal learning (RL) task in subchronic PCP mice; format: in vivo, Male C57BL/6J mice; details: rapamycin 0.2 nM ICV 24 h prior to rapastinel 3 mg/kg sc
# Method: as §1
compound,measurement,setting,value
CO[C@H]1C[C@@H]2CC[C@@H](C)[C@@](O)(O2)C(=O)C(=O)N2CCCC[C@H]2C(=O)O[C@H]([C@H](C)C[C@@H]2CC[C@@H](O)[C@H](OC)C2)CC(=O)[C@H](C)/C=C(\C)[C@@H](O)[C@@H](OC)C(=O)[C@H](C)C[C@H](C)/C=C/C=C/C=C/1C [rapamycin],Effect of rapamycin pretreatment on the efficacy of rapastinel in NOR,scPCP-treated mice [1],significantly blocked the efficacy of rapastinel; also recorded: blockade
same,Effect of rapamycin pretreatment on the efficacy of rapastinel in RL,scPCP-treated mice [2],significantly blocked the efficacy of rapastinel; also recorded: blockade
